# Laboratory results reported in the supplement of paper PMC8728848.
# The list shows a part of the results.
# B1: PX14375D-bvu-513-34-513 (Bacteroides vulgatus) (protein)
# chain: TEDTFWKDETDFNLALTSCYTPLKNALNGGYYGTRGVMLRIARADEVDFRNDISDVYTVNRFTNSNTNSLTQGMFYQFYNALYRTNSIMQKLEEKKEQFSTDFQNSVKGECLFIRGFYLFQLAKEFKDAPLRLTASQSPSTFPLAKSSQADIWAQAKEDLKTAASLLPITNKIGKPTQGAAYAALGKIYVYEENWQEAINVLEPLTQNPYTYKLVEDFNWNFDDTHENNAESIFELLIEDVGGTDLWGDGENINSTQSNTRPKEYAAAEVGGWYEANPTQQIMDIFWKEKDKDGNFDYRARCSVAWDYEGCTYYQRPFREVFAQDKWKTYWILKYQNWKTQKDEPAPPKSFINERAIRYADVLLMLAEAYMNKGALDTSIGYINQIRRRANLNDYSGPITKEGVFEDLVHQRAIEFFVEGERFYDLRRWGLLEQTLKTCDDTRYKNYQTGKSDNINKFNYFPIPAKELDTNPLCTPSEGW
# Columns and labels:
# Assay in all cases: glycan array binding signal (z-score within array); higher = stronger binding
# Details in all cases: glycan notation: IUPAC condensed, linker removed
# Fuc(a1-2)Gal = molecular target: Fuc(a1-2)Gal
# Method in brief: (§1)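 Glycan array binding is given as a within-array Z-score, which can be read as non-binding when negative. The arrays, 3228 of them, came from the Consortium for Functional Glycomics database and were retained only where the protein sequence was available. Z-scores were averaged across arrays of the same protein sequence at different concentrations or buffers and across linkers.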
# Fuc(a1-2)Gal(b1-3)GalNAc = molecular target: Fuc(a1-2)Gal(b1-3)GalNAc
# Method in brief: as §1
# [1] = molecular target: Fuc(a1-2)Gal(b1-3)GalNAc(a1-3)[Fuc(a1-2)]Gal(b1-4)Glc
# Method in brief: as §1
# [2] = molecular target: Fuc(a1-2)Gal(b1-3)GalNAc(a1-3)[Fuc(a1-2)]Gal(b1-4)GlcNAc
# Method in brief: as §1
# [3] = molecular target: Fuc(a1-2)Gal(b1-3)GalNAc(b1-3)Gal
# Method in brief: as §1
# [4] = molecular target: Fuc(a1-2)Gal(b1-3)GalNAc(b1-3)Gal(a1-4)Gal(b1-4)Glc
# Method in brief: as §1
# [5] = molecular target: Fuc(a1-2)Gal(b1-3)GalNAc(b1-4)[Neu5Ac(a2-3)]Gal(b1-4)Glc
# Method in brief: as §1
# Fuc(a1-2)Gal(b1-3)GlcNAc = molecular target: Fuc(a1-2)Gal(b1-3)GlcNAc
# Method in brief: as §1
# [6] = molecular target: Fuc(a1-2)Gal(b1-3)GlcNAc(b1-2)Man(a1-3)[Fuc(a1-2)Gal(b1-3)GlcNAc(b1-2)Man(a1-6)]Man(b1-4)GlcNAc(b1-4)GlcNAc
# Method in brief: as §1
# [7] = molecular target: Fuc(a1-2)Gal(b1-3)GlcNAc(b1-2)Man(a1-3)[Fuc(a1-2)Gal(b1-3)GlcNAc(b1-2)Man(a1-6)]Man(b1-4)GlcNAc(b1-4)[Fuc(a1-6)]GlcNAc
# Method in brief: as §1
# [8] = molecular target: Fuc(a1-2)Gal(b1-3)GlcNAc(b1-3)Gal(b1-4)Glc
# Method in brief: as §1
# [9] = molecular target: Fuc(a1-2)Gal(b1-3)GlcNAc(b1-3)GalNAc
# Method in brief: as §1
# [10] = molecular target: Fuc(a1-2)Gal(b1-3)GlcNAc(b1-3)[Fuc(a1-2)Gal(b1-3)GlcNAc(b1-6)]GalNAc
# Method in brief: as §1
# [11] = molecular target: Fuc(a1-2)Gal(b1-3)GlcNAc(b1-3)[Gal(b1-4)GlcNAc(b1-6)]Gal(b1-4)Glc
# Method in brief: as §1
# [12] = molecular target: Fuc(a1-2)Gal(b1-3)GlcNAc(b1-3)[Neu5Ac(a2-6)Gal(b1-4)GlcNAc(b1-6)]Gal(b1-4)Glc
# Method in brief: as §1
# [13] = molecular target: Fuc(a1-2)Gal(b1-3)GlcNAc6S
# Method in brief: as §1
# [14] = molecular target: Fuc(a1-2)Gal(b1-3)[Fuc(a1-4)]GlcNAc
# Method in brief: as §1
# [15] = molecular target: Fuc(a1-2)Gal(b1-3)[Fuc(a1-4)]GlcNAc(b1-2)Man(a1-3)[Fuc(a1-2)Gal(b1-3)[Fuc(a1-4)]GlcNAc(b1-2)Man(a1-3)]Man(b1-4)GlcNAc(b1-4)GlcNAc
# Method in brief: as §1
# [16] = molecular target: Fuc(a1-2)Gal(b1-3)[Fuc(a1-4)]GlcNAc(b1-2)Man(a1-3)[Fuc(a1-2)Gal(b1-3)[Fuc(a1-4)]GlcNAc(b1-2)Man(a1-6)]Man(b1-4)GlcNAc(b1-4)[Fuc(a1-6)]GlcNAc(b1-4)[Fuc(a1-6)]GlcNAc
# Method in brief: as §1
# [17] = molecular target: Fuc(a1-2)Gal(b1-3)[Fuc(a1-4)]GlcNAc(b1-3)[Fuc(a1-3)[Gal(b1-4)]GlcNAc(b1-6)]Gal(b1-4)Glc
# Method in brief: as §1
# [18] = molecular target: Fuc(a1-2)Gal(b1-3)[Fuc(a1-4)]GlcNAc(b1-3)[Gal(b1-4)GlcNAc(b1-6)]Gal(b1-4)Glc
# Method in brief: as §1
# Fuc(a1-2)Gal(b1-4)Glc = molecular target: Fuc(a1-2)Gal(b1-4)Glc
# Method in brief: as §1
# Fuc(a1-2)Gal(b1-4)Glc6S = molecular target: Fuc(a1-2)Gal(b1-4)Glc6S
# Method in brief: as §1
# Fuc(a1-2)Gal(b1-4)GlcNAc = molecular target: Fuc(a1-2)Gal(b1-4)GlcNAc
# Method in brief: as §1
# [19] = molecular target: Fuc(a1-2)Gal(b1-4)GlcNAc(b1-2)Man
# Method in brief: as §1
# [20] = molecular target: Fuc(a1-2)Gal(b1-4)GlcNAc(b1-2)Man(a1-3)[Fuc(a1-2)Gal(b1-4)GlcNAc(b1-2)Man(a1-6)]Man(b1-4)GlcNAc(b1-4)GlcNAc
# Method in brief: as §1
# [21] = molecular target: Fuc(a1-2)Gal(b1-4)GlcNAc(b1-2)Man(a1-3)[Fuc(a1-2)Gal(b1-4)GlcNAc(b1-2)Man(a1-6)]Man(b1-4)GlcNAc(b1-4)[Fuc(a1-6)]GlcNAc
# Method in brief: as §1
# [22] = molecular target: Fuc(a1-2)Gal(b1-4)GlcNAc(b1-2)[Fuc(a1-2)Gal(b1-4)GlcNAc(b1-4)]Man(a1-3)[Fuc(a1-2)Gal(b1-4)GlcNAc(b1-2)Man(a1-6)]Man(b1-4)GlcNAc(b1-4)GlcNAc
# Method in brief: as §1
# [23] = molecular target: Fuc(a1-2)Gal(b1-4)GlcNAc(b1-3)Gal(b1-4)GlcNAc
# Method in brief: as §1
# [24] = molecular target: Fuc(a1-2)Gal(b1-4)GlcNAc(b1-3)Gal(b1-4)GlcNAc(b1-2)Man(a1-3)[Fuc(a1-2)Gal(b1-4)GlcNAc(b1-3)Gal(b1-4)GlcNAc(b1-2)Man(a1-6)]Man(b1-4)GlcNAc(b1-4)GlcNAc
# Method in brief: as §1
# [25] = molecular target: Fuc(a1-2)Gal(b1-4)GlcNAc(b1-3)Gal(b1-4)GlcNAc(b1-3)Gal(b1-4)GlcNAc
# Method in brief: as §1
# [26] = molecular target: Fuc(a1-2)Gal(b1-4)GlcNAc(b1-3)GalNAc
# Method in brief: as §1
# [27] = molecular target: Fuc(a1-2)Gal(b1-4)GlcNAc(b1-3)[Fuc(a1-2)Gal(b1-4)GlcNAc(b1-6)]GalNAc
# Method in brief: as §1
# [28] = molecular target: Fuc(a1-2)Gal(b1-4)GlcNAc(b1-3)[Fuc(a1-3)[Gal(b1-4)]GlcNAc(b1-6)]Gal(b1-4)Glc
# Method in brief: as §1
# [29] = molecular target: Fuc(a1-2)Gal(b1-4)GlcNAc(b1-6)GalNAc
# Method in brief: as §1
# [30] = molecular target: Fuc(a1-2)Gal(b1-4)GlcNAc6S
# Method in brief: as §1
# [31] = molecular target: Fuc(a1-2)Gal(b1-4)[Fuc(a1-3)]GlcNAc
# Method in brief: as §1
# [32] = molecular target: Fuc(a1-2)Gal(b1-4)[Fuc(a1-3)]GlcNAc(b1-2)Man(a1-3)[Fuc(a1-2)Gal(b1-4)[Fuc(a1-3)]GlcNAc(b1-2)Man(a1-6)]Man(b1-4)GlcNAc(b1-4)[Fuc(a1-6)]GlcNAc
# Method in brief: as §1
# [33] = molecular target: Fuc(a1-2)Gal(b1-4)[Fuc(a1-3)]GlcNAc(b1-2)[Fuc(a1-2)Gal(b1-4)[Fuc(a1-3)]GlcNAc(b1-4)]Man(a1-3)[Fuc(a1-2)Gal(b1-4)[Fuc(a1-3)]GlcNAc(b1-2)Man(a1-6)]Man(b1-4)GlcNAc(b1-4)GlcNAc
# Method in brief: as §1
# [34] = molecular target: Fuc(a1-2)Gal(b1-4)[Fuc(a1-3)]GlcNAc(b1-3)Gal(b1-4)[Fuc(a1-3)]GlcNAc
# Method in brief: as §1
# [35] = molecular target: Fuc(a1-2)Gal(b1-4)[Fuc(a1-3)]GlcNAc(b1-3)Gal(b1-4)[Fuc(a1-3)]GlcNAc(b1-3)Gal(b1-4)[Fuc(a1-3)]GlcNAc
# Method in brief: as §1
# [36] = molecular target: Fuc(a1-2)Gal(b1-4)[Fuc(a1-3)]GlcNAc(b1-3)GalNAc
# Method in brief: as §1
# [37] = molecular target: Fuc(a1-2)Gal(b1-4)[Fuc(a1-3)]GlcNAc(b1-3)[Neu5Ac(a2-6)Gal(b1-4)GlcNAc(b1-6)]Gal(b1-4)Glc
# Method in brief: as §1
# [38] = molecular target: Fuc(a1-2)Gal3S(b1-4)GlcNAc
# Method in brief: as §1
# [39] = molecular target: Fuc(a1-2)Gal6S(b1-3)GlcNAc
# Method in brief: as §1
binder,measurement,setting,value
B1,glycan array binding signal (z-score),Fuc(a1-2)Gal,0.373
same,glycan array binding signal (z-score),Fuc(a1-2)Gal(b1-3)GalNAc,-0.315
same,glycan array binding signal (z-score),[1],-0.219
same,glycan array binding signal (z-score),[2],-0.323
same,glycan array binding signal (z-score),[3],-0.056
same,glycan array binding signal (z-score),[4],-0.694
same,glycan array binding signal (z-score),[5],0.3
same,glycan array binding signal (z-score),Fuc(a1-2)Gal(b1-3)GlcNAc,-0.892
same,glycan array binding signal (z-score),[6],1.56
same,glycan array binding signal (z-score),[7],0.425
same,glycan array binding signal (z-score),[8],-0.322
same,glycan array binding signal (z-score),[9],-0.35
same,glycan array binding signal (z-score),[10],0.041
same,glycan array binding signal (z-score),[11],0.231
same,glycan array binding signal (z-score),[12],0.112
same,glycan array binding signal (z-score),[13],0.675
same,glycan array binding signal (z-score),[14],-0.091
same,glycan array binding signal (z-score),[15],-0.328
same,glycan array binding signal (z-score),[16],2.03
same,glycan array binding signal (z-score),[17],-0.517
same,glycan array binding signal (z-score),[18],-0.295
same,glycan array binding signal (z-score),Fuc(a1-2)Gal(b1-4)Glc,-0.564
same,glycan array binding signal (z-score),Fuc(a1-2)Gal(b1-4)Glc6S,0.111
same,glycan array binding signal (z-score),Fuc(a1-2)Gal(b1-4)GlcNAc,0.501
same,glycan array binding signal (z-score),[19],-0.465
same,glycan array binding signal (z-score),[20],0.421
same,glycan array binding signal (z-score),[21],-0.653
same,glycan array binding signal (z-score),[22],1.01
same,glycan array binding signal (z-score),[23],-0.715
same,glycan array binding signal (z-score),[24],0.912
same,glycan array binding signal (z-score),[25],-0.384
same,glycan array binding signal (z-score),[26],0.752
same,glycan array binding signal (z-score),[27],-0.848
same,glycan array binding signal (z-score),[28],0.673
same,glycan array binding signal (z-score),[29],-0.542
same,glycan array binding signal (z-score),[30],-0.583
same,glycan array binding signal (z-score),[31],0.049
same,glycan array binding signal (z-score),[32],1.81
same,glycan array binding signal (z-score),[33],0.053
same,glycan array binding signal (z-score),[34],-0.512
same,glycan array binding signal (z-score),[35],-0.112
same,glycan array binding signal (z-score),[36],-0.44
same,glycan array binding signal (z-score),[37],-1.17
same,glycan array binding signal (z-score),[38],-0.619
same,glycan array binding signal (z-score),[39],0.295

# Not a retest: entries from further up.
binder,measurement,setting,value
B1,glycan array binding signal (z-score),[28],0.673
same,glycan array binding signal (z-score),[29],-0.542
same,glycan array binding signal (z-score),[30],-0.583
